# Results are given in words; binding and its absence hold for the method and conditions named. Binding seen in cells or lysates may run through a third protein.
# The chains behind the UniProt entries cited, without tags or fusion partners. Where a name states a change or a piece, a line headed by the entry shows the natural chain unless it says otherwise.
# UniProt O43791: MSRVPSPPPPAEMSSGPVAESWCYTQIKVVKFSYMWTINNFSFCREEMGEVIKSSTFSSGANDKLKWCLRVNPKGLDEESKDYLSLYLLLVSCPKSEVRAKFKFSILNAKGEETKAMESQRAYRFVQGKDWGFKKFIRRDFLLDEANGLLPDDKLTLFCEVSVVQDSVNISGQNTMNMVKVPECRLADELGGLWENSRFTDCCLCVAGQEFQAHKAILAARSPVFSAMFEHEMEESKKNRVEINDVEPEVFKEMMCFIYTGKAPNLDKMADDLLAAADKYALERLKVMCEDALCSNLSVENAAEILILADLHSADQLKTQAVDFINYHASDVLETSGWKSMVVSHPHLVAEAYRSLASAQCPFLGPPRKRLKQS
# UniProt Q01581: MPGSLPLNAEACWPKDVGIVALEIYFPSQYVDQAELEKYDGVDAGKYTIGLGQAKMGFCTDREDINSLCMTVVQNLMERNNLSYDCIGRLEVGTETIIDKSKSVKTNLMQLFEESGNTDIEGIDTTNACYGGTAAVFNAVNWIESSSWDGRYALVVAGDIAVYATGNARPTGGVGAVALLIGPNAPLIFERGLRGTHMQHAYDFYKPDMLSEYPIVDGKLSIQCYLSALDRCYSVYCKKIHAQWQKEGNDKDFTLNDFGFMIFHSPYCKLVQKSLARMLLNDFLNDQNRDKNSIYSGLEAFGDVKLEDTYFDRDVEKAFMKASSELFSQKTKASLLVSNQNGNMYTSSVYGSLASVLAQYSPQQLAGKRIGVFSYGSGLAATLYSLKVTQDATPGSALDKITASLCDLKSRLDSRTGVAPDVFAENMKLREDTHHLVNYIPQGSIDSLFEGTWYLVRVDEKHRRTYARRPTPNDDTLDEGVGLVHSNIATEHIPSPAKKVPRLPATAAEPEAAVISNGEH
# Target: SPOP (transfected construct) (UniProt O43791)
# Experiment: co-IP; IP assay of HMGCS1‐WT or HMGCS1‐ΔSBC with SPOP (Figure 5G); cells not stated in the legend
substance,measurement,value
HMGCS1‐ΔSBC (from UniProt Q01581),binding,no binding

# Reference: article PMC11005689
